{
  "source": "paper PMC3398883",
  "binders": {"B1": {"name": "SHIP-1 full length protein (SHIP-1 WT) (protein, UniProt Q92835 1-1189)", "chain": "MVPCWNHGNITRSKAEELLSRTGKDGSFLVRASESISRAYALCVLYRNCVYTYRILPNEDDKFTVQASEGVSMRFFTKLDQLIEFYKKENMGLVTHLQYPVPLEEEDTGDDPEEDTVESVVSPPELPPRNIPLTASSCEAKEVPFSNENPRATETSRPSLSETLFQRLQSMDTSGLPEEHLKAIQDYLSTQLAQDSEFVKTGSSSLPHLKKLTTLLCKELYGEVIRTLPSLESLQRLFDQQLSPGLRPRPQVPGEANPINMVSKLSQLTSLLSSIEDKVKALLHEGPESPHRPSLIPPVTFEVKAESLGIPQKMQLKVDVESGKLIIKKSKDGSEDKFYSHKKILQLIKSQKFLNKLVILVETEKEKILRKEYVFADSKKREGFCQLLQQMKNKHSEQPEPDMITIFIGTWNMGNAPPPKKITSWFLSKGQGKTRDDSADYIPHDIYVIGTQEDPLSEKEWLEILKHSLQEITSVTFKTVAIHTLWNIRIVVLAKPEHENRISHICTDNVKTGIANTLGNKGAVGVSFMFNGTSLGFVNSHLTSGSEKKLRRNQNYMNILRFLALGDKKLSPFNITHRFTHLFWFGDLNYRVDLPTWEAETIIQKIKQQQYADLLSHDQLLTERREQKVFLHFEEEEITFAPTYRFERLTRDKYAYTKQKATGMKYNLPSWCDRVLWKSYPLVHVVCQSYGSTSDIMTSDHSPVFATFEAGVTSQFVSKNGPGTVDSQGQIEFLRCYATLKTKSQTKFYLEFHSSCLESFVKSQEGENEEGSEGELVVKFGETLPKLKPIISDPEYLLDQHILISIKSSDSDESYGEGCIALRLEATETQLPIYTPLTHHGELTGHFQGEIKLQTSQGKTREKLYDFVKTERDESSGPKTLKSLTSHDPMKQWEVTSRAPPCSGSSITEIINPNYMGVGPFGPPMPLHVKQTLSPDQQPTAWSYDQPPKDSPLGPCRGESPPTPPGQPPISPKKFLPSTANRGLPPRTQESRPSDLGKNAGDTLPQEDLPLTKPEMFENPLYGSLSSFPKPAPRKDQESPKMPRKEPPPCPEPGILSPSIVLTKAQEADRGEGPGKQVPAPRLRSFTCSSSAEGRAAGGDKSQGKPKTPVSSQAPVPAKRPIKPSRSEINQQTPPTPTPRPPLPVKSPAVLHLQHSKGRDYRDNTELPHHGKHRPEEGPPGPLGRTAMQ"}},
  "molecular_target": "YFP-XIAP (human) (UniProt P98170)",
  "assay": "co-IP; HEK293T transfected with SHIP-1 constructs along with YFP-XIAP or YFP; lysis in 20 mM Tris-HCl pH 7.5, 135 mM NaCl, 1 mM EDTA, 0.5% NP-40, 10% glycerol; anti-GFP immunoprecipitation, 4°C; blots with anti-SHIP-1, anti-HA or anti-Myc",
  "note": "These are yes or no findings as the source states them, for the method shown. In cells and extracts the contact can be indirect. Some binding calls cover weakened binding; strength is not graded here.",
  "data": [
    {"binder": "B1", "values": [
      {"measurement": "binding", "value": "binds"}
    ]}
  ]
}
